Results are given in words; binding and its absence hold for the method and conditions named. In cells and extracts the contact can be indirect. These calls come from enrichment with a bait or labelling near it, and not all partners need be listed.
T1: CPEB3 (full-length), expressed in mouse neuroblastoma N2A cells (mouse) (UniProt Q7TN99)
T1 sequence: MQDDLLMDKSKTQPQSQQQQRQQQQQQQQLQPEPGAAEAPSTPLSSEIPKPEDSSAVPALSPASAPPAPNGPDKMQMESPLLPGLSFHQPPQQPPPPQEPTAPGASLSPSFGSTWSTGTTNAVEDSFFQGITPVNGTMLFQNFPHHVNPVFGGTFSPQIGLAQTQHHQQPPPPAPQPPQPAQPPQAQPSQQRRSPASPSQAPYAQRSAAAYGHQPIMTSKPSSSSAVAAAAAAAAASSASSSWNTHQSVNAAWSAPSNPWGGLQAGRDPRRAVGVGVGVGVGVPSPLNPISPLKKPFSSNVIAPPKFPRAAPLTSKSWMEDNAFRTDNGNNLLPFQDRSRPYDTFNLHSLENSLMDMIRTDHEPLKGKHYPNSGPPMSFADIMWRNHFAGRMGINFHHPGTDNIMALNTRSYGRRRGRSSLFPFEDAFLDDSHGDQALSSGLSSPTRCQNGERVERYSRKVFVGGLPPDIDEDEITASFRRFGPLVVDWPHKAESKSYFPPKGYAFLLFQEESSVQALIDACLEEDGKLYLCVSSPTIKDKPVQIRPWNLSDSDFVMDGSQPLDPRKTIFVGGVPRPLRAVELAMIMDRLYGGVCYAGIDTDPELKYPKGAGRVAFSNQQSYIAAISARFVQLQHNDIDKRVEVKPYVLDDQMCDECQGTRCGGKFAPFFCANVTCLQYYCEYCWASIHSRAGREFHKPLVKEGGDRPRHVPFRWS

Sequences of proteins named here, by UniProt entry; tags and fusion partners are left off.
UniProt P97452: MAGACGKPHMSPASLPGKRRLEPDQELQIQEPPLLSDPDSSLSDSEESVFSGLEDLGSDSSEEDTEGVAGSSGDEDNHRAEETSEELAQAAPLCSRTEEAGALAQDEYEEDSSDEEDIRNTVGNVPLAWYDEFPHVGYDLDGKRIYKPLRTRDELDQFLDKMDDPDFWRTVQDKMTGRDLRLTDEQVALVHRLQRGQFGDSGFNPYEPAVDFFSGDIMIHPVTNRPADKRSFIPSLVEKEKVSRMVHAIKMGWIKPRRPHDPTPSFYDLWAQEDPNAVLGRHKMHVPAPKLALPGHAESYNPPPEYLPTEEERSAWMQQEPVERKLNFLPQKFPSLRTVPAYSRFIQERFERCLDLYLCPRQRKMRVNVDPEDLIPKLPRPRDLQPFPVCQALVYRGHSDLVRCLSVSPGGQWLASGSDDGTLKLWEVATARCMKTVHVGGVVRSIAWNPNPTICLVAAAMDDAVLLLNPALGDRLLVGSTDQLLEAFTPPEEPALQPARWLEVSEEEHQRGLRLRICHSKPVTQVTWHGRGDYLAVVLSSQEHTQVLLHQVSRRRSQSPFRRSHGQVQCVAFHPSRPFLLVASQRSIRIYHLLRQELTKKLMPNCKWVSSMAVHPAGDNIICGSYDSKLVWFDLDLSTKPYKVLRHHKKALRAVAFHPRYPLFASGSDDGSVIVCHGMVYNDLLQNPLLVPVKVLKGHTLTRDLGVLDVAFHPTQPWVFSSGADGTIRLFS
UniProt Q61584: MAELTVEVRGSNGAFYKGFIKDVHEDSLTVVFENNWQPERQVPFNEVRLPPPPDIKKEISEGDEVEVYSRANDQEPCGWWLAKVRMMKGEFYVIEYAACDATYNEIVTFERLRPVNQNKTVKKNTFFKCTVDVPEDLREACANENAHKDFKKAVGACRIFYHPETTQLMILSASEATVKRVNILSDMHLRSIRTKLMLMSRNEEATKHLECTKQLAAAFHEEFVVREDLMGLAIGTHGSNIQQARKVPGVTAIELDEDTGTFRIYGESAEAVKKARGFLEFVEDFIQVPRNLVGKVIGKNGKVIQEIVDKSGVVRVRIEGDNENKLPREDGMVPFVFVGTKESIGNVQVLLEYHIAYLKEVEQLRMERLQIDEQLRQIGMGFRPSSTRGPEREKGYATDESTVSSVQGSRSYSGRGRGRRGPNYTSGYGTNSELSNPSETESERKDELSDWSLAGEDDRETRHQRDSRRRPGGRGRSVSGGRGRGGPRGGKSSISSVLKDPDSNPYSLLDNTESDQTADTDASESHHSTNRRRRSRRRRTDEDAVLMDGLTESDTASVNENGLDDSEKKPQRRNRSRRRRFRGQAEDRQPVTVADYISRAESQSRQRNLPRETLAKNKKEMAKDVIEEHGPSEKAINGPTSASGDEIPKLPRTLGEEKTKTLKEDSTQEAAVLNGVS
UniProt Q8CIP4: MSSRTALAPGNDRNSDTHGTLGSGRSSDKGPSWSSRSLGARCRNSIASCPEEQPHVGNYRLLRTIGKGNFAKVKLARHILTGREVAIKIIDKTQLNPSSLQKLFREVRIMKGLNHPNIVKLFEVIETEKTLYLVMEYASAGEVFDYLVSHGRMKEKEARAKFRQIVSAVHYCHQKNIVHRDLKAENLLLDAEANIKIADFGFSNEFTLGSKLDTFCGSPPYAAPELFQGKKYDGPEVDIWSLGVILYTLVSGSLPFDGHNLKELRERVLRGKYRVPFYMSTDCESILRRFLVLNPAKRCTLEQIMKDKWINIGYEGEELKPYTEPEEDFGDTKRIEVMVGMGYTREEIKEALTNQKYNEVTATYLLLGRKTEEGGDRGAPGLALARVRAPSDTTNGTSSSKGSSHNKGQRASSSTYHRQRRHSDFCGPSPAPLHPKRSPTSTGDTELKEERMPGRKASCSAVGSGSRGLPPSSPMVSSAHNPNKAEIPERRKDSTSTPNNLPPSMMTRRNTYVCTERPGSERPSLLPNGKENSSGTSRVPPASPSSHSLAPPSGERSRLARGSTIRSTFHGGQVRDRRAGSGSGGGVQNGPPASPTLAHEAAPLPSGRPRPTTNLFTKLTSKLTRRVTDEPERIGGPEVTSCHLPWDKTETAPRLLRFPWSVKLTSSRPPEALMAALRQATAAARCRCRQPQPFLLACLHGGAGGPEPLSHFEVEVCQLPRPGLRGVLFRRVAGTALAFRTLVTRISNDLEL
UniProt P54276: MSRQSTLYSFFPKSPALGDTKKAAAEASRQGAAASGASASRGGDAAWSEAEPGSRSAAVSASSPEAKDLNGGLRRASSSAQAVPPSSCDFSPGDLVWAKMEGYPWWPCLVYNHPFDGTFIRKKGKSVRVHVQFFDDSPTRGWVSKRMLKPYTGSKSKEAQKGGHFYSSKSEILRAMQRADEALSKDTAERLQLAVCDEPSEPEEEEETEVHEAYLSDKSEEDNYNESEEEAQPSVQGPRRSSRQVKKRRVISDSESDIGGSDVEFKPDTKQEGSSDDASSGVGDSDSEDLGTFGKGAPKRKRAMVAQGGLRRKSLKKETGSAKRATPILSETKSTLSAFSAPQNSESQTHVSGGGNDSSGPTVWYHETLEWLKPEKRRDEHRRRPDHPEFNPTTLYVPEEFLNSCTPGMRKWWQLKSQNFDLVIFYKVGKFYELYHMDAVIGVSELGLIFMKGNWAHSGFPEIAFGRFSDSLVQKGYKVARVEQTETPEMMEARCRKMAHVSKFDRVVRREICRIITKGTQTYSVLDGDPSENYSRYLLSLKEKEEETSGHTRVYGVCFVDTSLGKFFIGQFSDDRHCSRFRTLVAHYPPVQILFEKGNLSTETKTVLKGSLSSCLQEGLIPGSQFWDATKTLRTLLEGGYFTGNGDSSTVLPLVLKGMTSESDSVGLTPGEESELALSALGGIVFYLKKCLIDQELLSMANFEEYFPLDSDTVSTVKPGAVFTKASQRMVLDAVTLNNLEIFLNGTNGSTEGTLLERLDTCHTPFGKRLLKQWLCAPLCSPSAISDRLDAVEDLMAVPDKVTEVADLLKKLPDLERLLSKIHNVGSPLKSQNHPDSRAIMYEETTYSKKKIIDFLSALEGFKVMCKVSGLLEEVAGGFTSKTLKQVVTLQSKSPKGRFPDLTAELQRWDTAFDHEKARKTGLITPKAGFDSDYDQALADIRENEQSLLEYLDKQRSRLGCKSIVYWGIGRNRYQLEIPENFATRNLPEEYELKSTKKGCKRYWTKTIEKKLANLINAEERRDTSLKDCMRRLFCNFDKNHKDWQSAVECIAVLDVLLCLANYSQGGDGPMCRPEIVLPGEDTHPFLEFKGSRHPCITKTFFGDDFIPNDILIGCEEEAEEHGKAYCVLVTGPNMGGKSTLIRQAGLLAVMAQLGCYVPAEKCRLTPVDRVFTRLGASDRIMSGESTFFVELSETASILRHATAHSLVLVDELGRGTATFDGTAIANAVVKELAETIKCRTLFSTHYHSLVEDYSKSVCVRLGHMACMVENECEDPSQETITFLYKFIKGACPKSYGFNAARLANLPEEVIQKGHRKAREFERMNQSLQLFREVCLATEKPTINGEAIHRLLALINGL
UniProt Q99NH2: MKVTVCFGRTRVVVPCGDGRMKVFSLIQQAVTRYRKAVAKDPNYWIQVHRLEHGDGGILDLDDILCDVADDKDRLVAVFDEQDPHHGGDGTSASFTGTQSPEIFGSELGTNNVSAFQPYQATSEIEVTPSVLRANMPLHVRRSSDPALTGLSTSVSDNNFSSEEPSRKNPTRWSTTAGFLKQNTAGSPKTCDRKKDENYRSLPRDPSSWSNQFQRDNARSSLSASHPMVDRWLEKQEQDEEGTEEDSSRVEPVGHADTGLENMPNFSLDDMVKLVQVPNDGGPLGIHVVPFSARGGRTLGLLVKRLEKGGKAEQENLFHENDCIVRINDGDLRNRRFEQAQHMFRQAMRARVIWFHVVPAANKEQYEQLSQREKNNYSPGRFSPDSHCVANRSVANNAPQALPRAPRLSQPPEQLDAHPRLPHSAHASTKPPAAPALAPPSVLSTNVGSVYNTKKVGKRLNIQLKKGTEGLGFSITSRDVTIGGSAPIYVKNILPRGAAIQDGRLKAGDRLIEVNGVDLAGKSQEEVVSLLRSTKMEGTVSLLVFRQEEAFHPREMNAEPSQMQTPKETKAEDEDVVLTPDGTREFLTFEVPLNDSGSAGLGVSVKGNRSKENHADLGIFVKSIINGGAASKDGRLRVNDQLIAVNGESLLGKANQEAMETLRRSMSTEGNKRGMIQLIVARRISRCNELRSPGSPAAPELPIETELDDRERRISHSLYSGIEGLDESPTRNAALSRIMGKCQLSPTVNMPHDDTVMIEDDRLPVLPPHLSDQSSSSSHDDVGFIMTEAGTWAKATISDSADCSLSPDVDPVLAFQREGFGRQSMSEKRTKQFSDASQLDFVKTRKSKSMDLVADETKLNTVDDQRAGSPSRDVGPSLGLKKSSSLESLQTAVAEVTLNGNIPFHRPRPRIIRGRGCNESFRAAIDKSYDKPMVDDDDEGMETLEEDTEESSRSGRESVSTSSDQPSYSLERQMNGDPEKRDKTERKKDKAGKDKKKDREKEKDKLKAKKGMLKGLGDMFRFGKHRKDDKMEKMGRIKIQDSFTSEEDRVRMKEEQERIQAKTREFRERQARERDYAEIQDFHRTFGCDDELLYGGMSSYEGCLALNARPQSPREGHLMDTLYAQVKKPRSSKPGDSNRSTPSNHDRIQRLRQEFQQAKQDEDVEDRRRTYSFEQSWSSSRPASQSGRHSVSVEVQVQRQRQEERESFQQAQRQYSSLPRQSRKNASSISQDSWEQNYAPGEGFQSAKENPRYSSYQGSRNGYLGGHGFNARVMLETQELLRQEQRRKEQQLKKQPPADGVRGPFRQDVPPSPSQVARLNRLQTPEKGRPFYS
UniProt Q80TJ7: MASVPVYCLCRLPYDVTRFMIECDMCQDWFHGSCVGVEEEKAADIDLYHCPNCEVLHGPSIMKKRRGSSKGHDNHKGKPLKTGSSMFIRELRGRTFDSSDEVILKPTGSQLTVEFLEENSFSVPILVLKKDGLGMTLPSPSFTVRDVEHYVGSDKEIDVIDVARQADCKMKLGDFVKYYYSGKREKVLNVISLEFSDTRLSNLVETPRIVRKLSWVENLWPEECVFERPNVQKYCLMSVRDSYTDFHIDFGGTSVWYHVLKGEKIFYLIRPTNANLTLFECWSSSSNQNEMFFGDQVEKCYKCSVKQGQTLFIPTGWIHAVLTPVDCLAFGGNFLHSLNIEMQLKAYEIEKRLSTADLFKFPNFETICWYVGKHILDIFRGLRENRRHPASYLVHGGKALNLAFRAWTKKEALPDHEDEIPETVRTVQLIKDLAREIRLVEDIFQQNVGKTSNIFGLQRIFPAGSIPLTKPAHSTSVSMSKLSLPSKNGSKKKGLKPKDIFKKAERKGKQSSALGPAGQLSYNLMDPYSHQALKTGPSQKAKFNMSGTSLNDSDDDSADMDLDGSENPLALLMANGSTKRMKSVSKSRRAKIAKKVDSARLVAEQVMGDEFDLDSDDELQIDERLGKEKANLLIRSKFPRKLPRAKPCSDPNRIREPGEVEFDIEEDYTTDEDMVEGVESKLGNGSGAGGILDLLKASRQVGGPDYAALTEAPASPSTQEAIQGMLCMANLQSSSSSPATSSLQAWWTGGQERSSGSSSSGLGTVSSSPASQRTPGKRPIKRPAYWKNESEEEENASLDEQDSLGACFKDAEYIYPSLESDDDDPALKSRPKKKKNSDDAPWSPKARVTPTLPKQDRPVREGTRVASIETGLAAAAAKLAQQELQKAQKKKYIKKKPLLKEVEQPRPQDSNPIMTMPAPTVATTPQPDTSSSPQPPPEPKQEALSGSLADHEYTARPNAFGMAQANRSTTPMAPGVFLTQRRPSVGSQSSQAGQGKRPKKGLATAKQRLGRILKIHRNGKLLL
UniProt Q8K202: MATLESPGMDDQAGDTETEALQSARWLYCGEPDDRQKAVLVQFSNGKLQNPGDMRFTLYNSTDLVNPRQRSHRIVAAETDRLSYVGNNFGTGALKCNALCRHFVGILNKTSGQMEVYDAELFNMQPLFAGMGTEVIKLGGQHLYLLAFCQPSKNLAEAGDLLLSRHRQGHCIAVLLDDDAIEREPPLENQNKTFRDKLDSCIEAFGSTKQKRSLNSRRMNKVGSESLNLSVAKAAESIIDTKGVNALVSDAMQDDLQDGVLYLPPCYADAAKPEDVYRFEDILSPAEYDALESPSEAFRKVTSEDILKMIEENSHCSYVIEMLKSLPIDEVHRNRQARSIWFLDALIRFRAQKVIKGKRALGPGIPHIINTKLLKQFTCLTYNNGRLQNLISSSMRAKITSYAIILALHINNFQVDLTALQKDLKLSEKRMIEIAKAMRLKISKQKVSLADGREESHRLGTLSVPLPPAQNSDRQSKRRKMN

B1: Kif4 (protein, UniProt P33174 1-1231)
chain: MKEEVKGIPVRVALRCRPLVSKEIKEGCQTCLSFVPGEPQVVVGNDKSFTYDFVFDPSTEQEEVFNTAVAPLIKGVFKGYNATVLAYGQTGSGKTYSMGGAYTAEQEHDSAIGVIPRVIQLLFKEINKKSDFEFTLKVSYLEIYNEEILDLLCSSREKATQINIREDPKEGIKIVGLTEKTVLVASDTVSCLEQGNNSRTVASTAMNSQSSRSHAIFTISIEQRKKNDKNSSFRSKLHLVDLAGSERQKKTKAEGDRLREGININRGLLCLGNVISALGDDKKGNFVPYRDSKLTRLLQDSLGGNSHTLMIACVSPADSNLEETLNTLRYADRARKIKNKPIINIDPQAAELNHLKQQVQQLQILLLQAHGGTLPGDINVEPSENLQSLMEKNQSLVEENEKLSRGLSEAAGQTAQMLERIILTEQANEKMNAKLEELRRHAACKVDLQKLVETLEDQELKENIEIICNLQQVIAQLSDEAAACMTATIDTAGEADTQVQSSPDTSRSSDVFSTQHALRQAQMSKELIELNKALALKEALAKKMTQNDNQLQPIQFQYQDNIKNLESEVLSLQREKEELVLELQTAKKDANQAKLSERRRKRLQELEGQIADLKKKLQEQSKLLKLKESTEHTVSKLNQEIRMMKNQRVQLMRQMKEDAEKFRQWKQQKDKEVIQLKERDRKRQYELLKLERNFQKQSNVLRRKTEEAAAANKRLKDALQKQKEVAEKRKETQSRGMESTAARMKNWLGNEIEVMVSTEEAKRHLNGLLEERKILAQDVAQLKEKRESGENPPLKLRRRTFSYDEIHGQDSGAEDSIAKQIESLETELELRSAQIADLQQKLLDAESEDRPKQRWESIATILEAKCAIKYLVGELVSSKILVSKLESSLNQSKASCIDVQKMLFEEQNHFAKIETELKEELVKVEQQHQEKVLYLLSQLQQSQMTEKQLEESVSEKEQQLLSTLKCQEEELRKMQEVCEQNQQLLQENSAIKQKLTLLQVASKQKPHLTRNIFQSPDSSFEYIPPKPKPCRIKEKCLEQSFAVEGLQYYSEPSVAEQDNEDSDDHADEEWIPTKLVKVSKKSIQGCSCKGWCGNKQCGCRKQKSDCNVSCSCDPTKCRNRHQNQDNSDAIELNQDSENSFKLEDPTEVTSGLSFFHPICATPSSKILKEMCDADQVQLKQPVFVSSSDHPELKSIASESQENKAIGKKKKRALASNTSFFSGCSPIQEESH
B2: Ckap2 (protein, UniProt Q3V1H1 1-664)
chain: MAESRKRFLGRAARNPLPVTRDLQLPPTRRDQPAFREQRKQKLKEYLLIRKTVFPYKQENQISRDQKMITSEDRVQEGKKVVKLKTEVADKENIESTVEKNCIPLKAGEVTSSEIHNSKDNVQAVQLLSTRDDLPGQTVTLDPACHHKDNKKMQMTAEKPKQDSNVSKKRVLGYYHGQIVQSKINSFRKLPSVKGESLTTTKKLPTTVSKAMKAQSEPANTVSVKASTTAAATKFADAKPVSTASKDTLVRPPIRSLHSSSHGAAKQGLSRPLANVTVRKGMLDKESHRSEPVVSVVKAGSSQAPSRSIASKDAARTDSSNTRLMVKPKDTDQRRYTIAGASVHRSAQLKDTTAERKAQMTEWRTGKGKGLKRPPHSVVTQAEPKGQSENPVGSFWTTMAEEDEQRLFTEKVNKTISECLNLINEGCPKEEILATLNDLIHNIPDAKKLVKYWICLVRIEPITSPIENIISIYEKAILAGAQPIEEMRHIIIDILTTKSQEKVNLGENIEEAHATKEPIQEVNADANVGSGKPGEENEHHGKVEVYEDDQDNKIKDPDLTTPDSKTEAGCIIRYNVSSTPRLQSMKKMQHDKNSTLKELKFLTPVRRSRRIQDKTSRLPAMLKDHDPSVSSLEQLSELGGDAFVCRPNAALCPLFFETDVAEEE
B3: Ctcf (protein, UniProt Q61164 1-736)
chain: MEGEAVEAIVEESETFIKGKERKTYQRRREGGQEEDACHLPQNQTDGGEVVQDVNSSVQMVMMEQLDPTLLQMKTEVMEGTVAPEAEAAVDDTQIITLQVVNMEEQPINIGELQLVQVPVPVTVPVATTSVEELQGAYENEVSKEGLAESEPMICHTLPLPEGFQVVKVGANGEVETLEQGELPPQEDSSWQKDPDYQPPAKKTKKTKKSKLRYTEEGKDVDVSVYDFEEEQQEGLLSEVNAEKVVGNMKPPKPTKIKKKGVKKTFQCELCSYTCPRRSNLDRHMKSHTDERPHKCHLCGRAFRTVTLLRNHLNTHTGTRPHKCPDCDMAFVTSGELVRHRRYKHTHEKPFKCSMCDYASVEVSKLKRHIRSHTGERPFQCSLCSYASRDTYKLKRHMRTHSGEKPYECYICHARFTQSGTMKMHILQKHTENVAKFHCPHCDTVIARKSDLGVHLRKQHSYIEQGKKCRYCDAVFHERYALIQHQKSHKNEKRFKCDQCDYACRQERHMIMHKRTHTGEKPYACSHCDKTFRQKQLLDMHFKRYHDPNFVPAAFVCSKCGKTFTRRNTMARHADNCAGPDGVEGENGGETKKSKRGRKRKMRSKKEDSSDSEENAEPDLDDNEEEEEPAVEIEPEPEPQPQPPPPPQPVAPAPPPAKKRRGRPPGRTNQPKQNQPTAIIQVEDQNTGAIENIIVEVKKEPDAEPAEGEEEEAQAATTDAPNGDLTPEMILSMMDR
B4: Cmss1 (protein, UniProt Q9CZT6 1-276)
chain: MADDLGDEWWENQPAAASSPEQSGGEEGGDTEMTQQDTAPVPEKTQQPTECFLTQTKEPKAEDSRKTRKWKKKKISDILAKSEPKPGTPEDLQKLIRDHYSSSRSVIELEELHLPDSCFLKANDLTHSLSSYLKEICPKWVKLRKTHNEKKSVLMLILCSSAVRALELIRSLTAFKGDAKVMKLFAKHIKVQEQVKLLEKRVIHLGVGTPGRIKELVKQDGLHLNPLKFLVFDWNWRDQKLRRMMDIPEIRKEVFELLDMGVFSLCKSDSLKLGLF
B5: Ddx46 (protein, UniProt Q569Z5 1-1032)
chain: MGRESRHYRKRSASRGRSGSRSRSRSPSDKRSKRGDDRRSRSRDRDRRRERSRSRDKRRSRSRDRKRLRRSRSRERDRSRERRRSRSRDRRRSRSRSRGRRSRSSSPGSKTKKTENRSRSKEKAEGGDSSKEKKKDKDDKEDEKEKDAGNFDQNKLEEEMRKRKERVEKWREEQRKKAMENIGELKKEIEEMKQGKKWSLEDDDDDEDDPAEAEKEGTEMEDEELDPLDAYMEEVKEEVKKFNMRSVKGGAGNEKKSGPTVTKVVTVVTTKKAVVDADKKKGELMENDQDAMEYSSEEEEVDLQTALTGYQTKQRKLLEPVDHGKIEYEPFRKNFYVEVPELAKMSQEEVNVFRLEMEGITVKGKGCPKPIKSWVQCGISMKILNSLKKHGYEKPTPIQTQAIPAIMSGRDLIGIAKTGSGKTIAFLLPMFRHIMDQRSLEEGEGPIAVIMTPTRELALQITKECKKFSKTLGLRVVCVYGGTGISEQIAELKRGAEIIVCTPGRMIDMLAANSGRVTNLRRVTYVVLDEADRMFDMGFEPQVMRIVDNVRPDRQTVMFSATFPRAMEALARRILSKPIEVQVGGRSVVCSDVEQQVIVIEEEKKFLKLLELLGHYQESGSVIIFVDKQEHADGLLKDLMRASYPCMSLHGGIDQYDRDSIINDFKNGTCKLLVATSVAARGLDVKHLILVVNYSCPNHYEDYVHRAGRTGRAGNKGYAYTFITEDQARYAGDIIKALELSGTAVPPDLEKLWSDFKDQQKAEGKIIKKSSGFSGKGFKFDETEQALANERKKLQKAALGLQDSDDEDAAVDIDEQIESMFNSKKRVKDMAAPGTSSVPAPTAGNAEKLEIAKRLALRINAQKNLGIESQVDVMQQATNAILRGGTILAPTVSAKTIAEQLAEKINAKLNYVPLEKQEEERQEGGQSESFKRYEEELEINDFPQTARWKVTSKEALQRISEYSEAAITIRGTYFPPGKEPKEGERKIYLAIESANELAVQKAKAEITRLIKEELIRLQNSYQPTNKGRYKVL
B6: Imp3 (protein, UniProt Q921Y2 1-184)
chain: MVRKLKFHEQKLLKQVDFLNWEVTDHNLHELRVLRRYRLQRREEYTRYNQLSRAVRELARRLRDLPERDPFRVRASAALLDKLYAMGLVPTRGSLELCDSVSASSFCRRRLPTLLLKLRMAQHLQAAVAFVEQGHVRVGPDVVTDPAFLVTRSMEDFVTWVDSSKIKRHVLEYNEERDDFDLDA

Target: T1, CPEB3 (full-length), expressed in mouse neuroblastoma N2A cells (mouse)
Assay: affinity purification with mass spectrometry; interactomes of N2A-expressed CPEB3 and S240-242A compared (Fischer's test); immunoprecipitation from RIPA + NEM lysate, LC-MS/MS

binding, binds:
Bop1 (from UniProt P97452 1-732)
FMR1 Autosomal Homolog 1 (from UniProt Q61584 1-677)
Mark4 (from UniProt Q8CIP4 1-752)
Msh6 (from UniProt P54276 1-1358)
Pard3 (from UniProt Q99NH2 1-1333)
Phf8 (from UniProt Q80TJ7 1-1023)
Polr1e (from UniProt Q8K202 1-482)
B1
B2
B3
B4
B5
B6

From publication PMC9964033
